Several values for one entry are separate records, joined by “and”; a condition that tells them apart may be missing. Equal values may be shown once. Shown are results outside the selection of hits, which stands elsewhere. Records with an inconclusive call do not appear. Activity calls are given as the source filed them. Unless noted, calls follow the shape of the dose curve; as a rule, active = well fitted curve in the direction sought with a large enough effect in the repeat runs; inconclusive = weak or mixed curves; inactive = no such curve, though single readings can be large; an effect the other way counts as inactive or inconclusive.
What was measured:
[1] = qHTS assay for small molecule activators of the heat shock response signaling pathway - cell viability counter screen (AID 743209); conditions: HSE-bla HeLa viability, CellTiter-Glo luminescence, 5 h; also: % is scaled to controls: 0 for no effect and ±100 for the full control effect; nearly all actives have a fitted effect of over 50% in size
How it was run: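 Quantitative HTS format, Tox21 10K library. HeLa cells carrying an HSE-driven beta-lactamase reporter were treated 5 h at 37 C, then assessed for viability by CellTiter-Glo luminescence.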

[2] = qHTS assay to identify small molecule agonists of the peroxisome proliferator-activated receptor delta (PPARd) signaling pathway - cell viability counter screen (AID 743211); conditions: PPARd-bla HEK293H viability, CellTiter-Glo luminescence, 17 h; also: % is scaled to controls: 0 for no effect and ±100 for the full control effect; nearly all actives have a fitted effect of over 55% in size
How it was run: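 Counter screen for cytotoxicity run in parallel with the PPARd reporter screen. Beta-lactamase reporter HEK293H cells exposed to compounds 17 h; ATP-based CellTiter-Glo luminescence quantified viability.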

[3] = qHTS assay to identify small molecule antagonists of the peroxisome proliferator-activated receptor delta (PPARd) signaling pathway - cell viability counter screen (AID 743213); conditions: PPARd-bla HEK293H viability, CellTiter-Glo luminescence, 17 h; also: % is scaled to controls: 0 for no effect and ±100 for the full control effect; nearly all actives have a fitted effect of over 50% in size
How it was run: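 Cytotoxicity counter screen: CellTiter-Glo luminescence read 30 min after addition, in the same wells as the reporter assay. There, PPARd UAS-bla HEK293H cells (3000/well) were treated 17 h at 37 C with compound and 300 nM L165041.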

[4] = qHTS assay to identify small molecule agonists of the farnesoid-X-receptor (FXR) signaling pathway - cell viability counter screen (AID 743218); conditions: FXR-bla HEK293T viability, CellTiter-Glo luminescence, 16 h; also: % is scaled to controls: 0 for no effect and ±100 for the full control effect; nearly all actives have a fitted effect of over 45% in size
How it was run: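 In GeneBLAzer FXR-UAS-bla HEK 293T cells, compounds act for 16 h at 37 C. Cell viability is then scored in the reporter wells by CellTiter-Glo, 30 min at RT, luminescence.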

[5] = qHTS assay to identify small molecule agonists of the endoplasmic reticulum stress response signaling pathway - cell viability counter screen (AID 1159517; calls by dose curve;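 also: HeLa cells carrying an ER stress response element beta-lactamase reporter; % is scaled to controls: 0 for no effect and ±100 for the full control effect; nearly all actives have a fitted effect of over 50% in size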); conditions: ESRE-bla HeLa viability, CellTiter-Glo luminescence, 5 h
How it was run: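 Luminescence readout: CellTiter-Glo, 30 min RT, same wells as the ESRE-bla reporter read. HeLa ESRE-bla, 1,500 cells/well, o/n 37 C; cpd 5 hr 37 C/5% CO2.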

[6] = qHTS assay to identify small molecule antagonists of the retinoid-related orphan receptor gamma (ROR-gamma) signaling pathway - cell viability counter screen (AID 1159520); conditions: Tet-on RORgamma CHO cells viability, ATP luminescence, 16 h; at 92.4 µM (top of the series); also: % is scaled to controls: 0 for no effect and ±100 for the full control effect; nearly all actives have a fitted effect of over 50% in size
How it was run: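 Tet-on ROR gamma CHO cells (1,000/well) were plated 4 hr, given compounds in DMSO for 2 hr at 37 C, then induced with 1 uM final doxycycline for 16 hr. Viability was read as ATP by CellTiter-Glo luminescence after 30 min.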

[7] = qHTS assay to identify small molecule agonists of the AP-1 signaling pathway - cell viability counter screen (AID 1159525; calls by dose curve; also: nearly all actives have a fitted effect of over 55% in size); conditions: ME-180 (cervical carcinoma) AP-1-bla cells viability, ATP luminescence, 5 h; at 76.8 µM (top of the series)
Source text: National Center for Advancing Translational Sciences [NCATS]
NIH Chemical Genomics Center [NCGC]
U.S. Environmental Protection Agency [EPA]
National Institutes of Environmental Health Sciences [NIEHS]
National Toxicology Program [NTP]
U.S. Food and Drug Administration [FDA]
Activator protein-1 (AP-1), a transcription factor, plays an important role in tumor genesis by regulating genes involved in cell proliferation, differentiation, apoptosis, and angiogenesis. AP-1 activity is induced by a complex network of signaling pathways that involves extracellular signals, such as growth factors. The AP-1 protein complex formed from c-Fos and c-Jun binding to the AP-1 response element results in transcriptional activation of genes containing such elements within their promoter.
Low molecular weight molecules have been discovered and developed to modulate various components of these signaling pathways, for example, MAP kinase inhibitors. However, many points of pathway modulation remain untested due to the lack of chemical probes making this signaling locus of general interest.
Using a beta-lactamase reporter-gene under control of the AP-1 response element, a cell-based assay [CellSensor(TM) AP-1-bla ME-180 developed by Invitrogen Corp.] was used to measure EGF-induced signaling. The Tox21 10K library compounds were measured for their ability to positively modulate the action of EC50 EGF on reporter gene activity. Compounds were screened in a 15-pt titration series in 1536-well format. The cytotoxicity of the Tox21 compound library against this cell line was tested in parallel by measuring the intra cellular ATP content in the same wells.
Tox21 Assay Protocol Summary:
2500 cells/5uL in Opti-MEM medium containing 0.5% dialyzed FBS, 0.1 mM NEAA, 1 mM sodium pyruvate and 10 mM HEPES was dispensed into 1536-well black wall/clear bottom plates using a Multidrop dispenser and cells were cultured at 37 degrees Celsius overnight. Next day 23 nL of compounds dissolved in DMSO, positive controls or DMSO were delivered to each well using a pin tool. The plates were incubated at 37 degrees Celsius for 5 hours. 1 uL of LiveBLAzerTM B/G FRET substrate (Solution A+B+C+D) was added to each well using a Flying Reagent Dispenser. After incubated at room temperature for 2.5 hours the plates were measured on an EnVision plate reader at Excitation 405nm, Emission1=460nm and Emission 2=530nm. The %Activity was determined from the ratio of 460nm/530nm.
After the plates were read for Beta-Lactamase assay on Envision; 3 ul Cell Titer Glo (Promega) was added to measure the cytotoxicity and the plates were then incubated at RT in dark for 30 min. The luminescence was read on ViewLux (Perkin Elmer, Shelton, CT) using 6 sec exposure. ViewLux data was expressed as relative luminescence units.
For primary data analysis, raw plate reads for each titration point were first normalized relative to […] EGF control (100%) and DMSO only wells (basal, 0%).
For primary data analysis for viability assay, raw plate reads for each titration point were first normalized Tetra n-octyl ammonium bromide control (-100%) and DMSO (control, 100%).

[8] = qHTS assay to identify small molecule agonists of the RXR signaling pathway - cell viability counter screen (AID 1159529); conditions: RXR-alpha-bla HEK293T viability, CellTiter-Glo, 16 h; at 76.8 µM (top of the series)
How it was run: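 Steps: seed RXR-alpha-UAS-bla HEK 293T cells in assay medium containing 2% charcoal-stripped FBS; incubate 5 hr; add compounds in DMSO; incubate 16 hr at 37 C; after the bla read, add CellTiter-Glo and read luminescence at 30 min.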

[9] = qHTS assay to identify small molecule antagonists of the farnesoid-X-receptor (FXR) signaling pathway - cell viability counter screen (AID 743221; active = well fitted cell-killing curve with a large enough effect in the repeat runs, not every such curve was filed as active); conditions: FXR-bla HEK293T viability, CellTiter-Glo luminescence, 16 h; at 62.6 µM (top of the series) unless noted
How it was run: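 Multiplexed counter screen: viability of FXR-bla HEK 293T cells under agonist stimulation by chenodeoxycholic acid (50 uM, final) and test compound for 16 h at 37 C, measured by CellTiter-Glo luminescence in the reporter wells.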

[10] = target: Nuclear receptor ROR-gamma (Homo sapiens) (UniProt P51449); assay: qHTS assay to identify small molecule antagonists of the retinoid-related orphan receptor gamma (ROR-gamma) signaling pathway (AID 1159521); conditions: Tet-on RORgamma CHO cells, RORE-luciferase, 16 h; at 92.4 µM (top of the series)
How it was run: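 Cells were plated, rested 4 h at 37 C, exposed to compounds for 2 h, then given 1 uM final doxycycline hyclate to induce RORγ expression. After 16 h, ONE-Glo luminescence from the ROR response element reporter was measured.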

CC(=O)N(C)C
inactive: activity change, negative = cytotoxicity ([1]; at 62.6 µM (top of the series)) -2.03% | activity change, negative = cytotoxicity ([1]; at 81.1 µM (top of the series)) -0.143% | activity change, negative = cytotoxicity ([2]; at 62.6 µM (top of the series)) 12.2% | activity change, negative = cytotoxicity ([2]; at 81.1 µM (top of the series)) 20.4% | viability change, negative = cytotoxic ([3]; at 62 µM (top of the series)) -5.24% | viability change, negative = cytotoxic ([3]; at 80.4 µM (top of the series)) -18% | viability change, negative = cytotoxic ([4]; at 62.6 µM (top of the series)) -12.8% | viability change, negative = cytotoxic ([4]; at 81.1 µM (top of the series)) 0% | activity change, negative = cytotoxicity ([5]; at 61 µM (top of the series)) 22.7% | activity change, negative = cytotoxicity ([5]; at 78.8 µM (top of the series)) -4.82% | activity, negative = cytotoxicity [6] 5.22% and -3.75% | viability change, negative = cytotoxic [7] 1.46% and 0.0921% | activity change, negative = cytotoxicity [8] -19% and -8.01%

CS(=O)(=O)c1ccc([C@@H](CC2CCCC2)C(=O)Nc2cnccn2)cc1Cl
inactive: activity change, negative = cytotoxicity ([1]; at 62.6 µM (top of the series)) 2.25% | activity change, negative = cytotoxicity ([2]; at 62.6 µM (top of the series)) -1.49% | viability change, negative = cytotoxic ([3]; at 62 µM (top of the series)) -11.5% | viability change, negative = cytotoxic ([4]; at 62.6 µM (top of the series)) -10.9% | activity change, negative = cytotoxicity [9] 5.09% | activity change, negative = cytotoxicity ([5]; at 61 µM (top of the series)) -11.4% | activity, negative = cytotoxicity [6] -1.65% | viability change, negative = cytotoxic [7] -9.6% | activity change, negative = cytotoxicity [8] -12.1%

O=C1Cc2ccccc2C1
inactive: activity, negative = cytotoxicity [6] 0.946% | activity change, negative = inhibition [10] 28.1% | viability change, negative = cytotoxic [7] -0.554% | activity change, negative = cytotoxicity [8] -8.67%

COc1ccc2ccccc2c1
inactive: activity change, negative = cytotoxicity ([1]; at 62.6 µM (top of the series)) 2.15% | activity change, negative = cytotoxicity ([2]; at 62.6 µM (top of the series)) -1.53% | viability change, negative = cytotoxic ([3]; at 62 µM (top of the series)) 14.2% | viability change, negative = cytotoxic ([4]; at 62.6 µM (top of the series)) 0.683% | activity change, negative = cytotoxicity [9] 7.64% | activity change, negative = cytotoxicity ([5]; at 61 µM (top of the series)) 1.66% | activity, negative = cytotoxicity [6] -3.75% | activity change, negative = inhibition [10] 0.704% | viability change, negative = cytotoxic [7] 0.863% | activity change, negative = cytotoxicity [8] 1.03%

CCCCCCCC1CCC(=O)O1 (stereo unspecified)
inactive: activity change, negative = cytotoxicity ([1]; at 62.6 µM (top of the series)) 2.18% | activity change, negative = cytotoxicity ([2]; at 62.6 µM (top of the series)) 2.58% | viability change, negative = cytotoxic ([3]; at 62 µM (top of the series)) 7.95% | viability change, negative = cytotoxic ([4]; at 62.6 µM (top of the series)) 21.5% | activity change, negative = cytotoxicity [9] -0.678% | activity change, negative = cytotoxicity ([5]; at 61 µM (top of the series)) -6.71% | activity, negative = cytotoxicity [6] -5.48% | activity change, negative = inhibition [10] 84.3% | viability change, negative = cytotoxic [7] 1.62% | activity change, negative = cytotoxicity [8] -14.1%

Nc1ccc(N)c([N+](=O)[O-])c1
inactive: activity change, negative = cytotoxicity ([1]; at 81.1 µM (top of the series)) -20.6% | viability change, negative = cytotoxic ([3]; at 62 µM (top of the series)) -20.3% | activity change, negative = cytotoxicity [9] 8.42% [at 81.1 µM] | viability change, negative = cytotoxic [7] -6.49% | activity change, negative = cytotoxicity [8] -5.5%

From PubChem BioAssay (Tox21)
